Patent US12643935B2, “PD-L1 binding peptides” (UNIVERSITY OF SOUTHERN CALIFORNIA, priority 2020, dated 2026)
Some results were stated once for a whole list of compounds, not compound by compound.

Target: hPD-L1 (Homo sapiens, UniProt Q9NZQ7)
Assay: Radiolabeled [35S] peptide binding assay on immobilized hPD-L1
Parameters: designed from A18 to T239 with a methionine added to the N-terminus; hexahistidine tag (C); made in house
Conditions: [35S]-labeled N-terminally truncated variants
Experimental: [^35S]-labeled peptides were translated as described above by including 2 μCi labeled methionine (Perkin Elmer) per 10 pmol of template in the translation reaction. Each peptide was tested with a […] (for X9-library derived peptides) (SEQ ID NO: 11) or a […] (for X17-library derived peptides) (SEQ ID NO: 12) C-terminal sequence. […] The supernatant was removed and was counted. The beads were subsequently washed three times with 1 mL of blocking buffer and the washes were also counted. Finally, the beads were resuspended in 1 mL of blocking buffer and were counted separately. The ratio of the counts remaining on the beads to the total counts added to the binding reaction (the sum of the counts for supernatant, washes, and beads) was calculated to determine the percent bound.

Row | Sequence | binding to hPD-L1 as compared with full-length SPAM [%]
1 | MDHILNKFWILHYA [Trunc 4] | ≤ 25
2 | MIFLDHILNKFWILHYA [Trunc 1] | ≤ 25
3 | MFLDHILNKFWILHYA [Trunc 2] | ≤ 25
4 | MLDHILNKFWILHYA [Trunc 3] | ≤ 25
